# Assay results published in PubChem BioAssay AID1745849 (National Center for Advancing Translational Sciences (NCATS), 2022).
# Only a part is listed here, and it is no random draw. Inconclusive results are not listed. The source made the active and inactive calls. The call rests on the fitted dose curve; in most records, active means well fitted cell-killing curve with a large enough effect; inconclusive means small, poorly fitted or top-dose-only effect, or effect the other way; inactive means flat fitted curve, though single readings scatter.
# Assay: Viability Counterscreen for CMV-Luciferase Assay of Inhibitors of ATXN expression; further: nearly all actives have a fitted effect of over 55% in size
# Conditions: HEK-293 CMV-luciferase cells viability, protease fluorescence, 24 h
# Source text: PI: Daniel Scoles Ph.D. University of Utah School of Medicine, Salt Lake City, Utah MLPCN Grant: NS073009 Spinocerebellar ataxia type 2 (SCA2) is a multisystem neurodegenerative disease caused by a dominantly acting mutation leading to expansion of a polyQ domain in the ataxin-2 protein (ATXN2). SCA2 patients develop progressive ataxia and later lose function in other neuronal systems. Prominent parkinsonian signs develop in some patients. Like many neurodegenerative disorders, no symptomatic or disease-modifying treatments are known. The primary objective of the proposed research is to identify compounds inhibiting ATXN2 expression and to test them for efficacy in SCA2 mouse models. […] Here we describe a 5-7 dose quantitative high thoroughput screen (qHTS) for compounds lowering ATXN2 expression. […]
# PROTOCOL TABLE (as described by Inglese J, Shamu CE and Guy RK. 2007) SEQUENCE No. (e.g., 1, 2, 3, etc.); PARAMETER (e.g., Cells, Incubation, Reagent, etc.); VALUE; DESCRIPTION. […] 7; Detection; Fluorescence; Viewlux plate reader (PerkinElmer). […] 10; Detection; Luminescence; ViewLux plate reader (PerkinElmer). […] To assess cell viability; the assay plates were read using the ViewLux high-throughput CCD imager (PerkinElmer), wherein single end-point fluorescence measurement was acquired (excitation 405/10; emission 540/25 nm). […]
# Potency means the concentration at half of the fitted maximal effect.
row,SMILES,Potency
1,COc1ccccc1C(=O)NNC(=S)NC(=O)c1ccco1,active: 12.6 µM
